Results taken from publication PMC3566133, “Molecular Analysis of the Prostacyclin Receptor’s Interaction with the PDZ1 Domain of Its Adaptor Protein PDZK1” (PLoS ONE, 2013).
No constants are given. Whether binding was seen depends on the method and setting.

Molecular target: T1, recombinant full-length PDZK1 (mouse, UniProt Q9JIL4 1-519)
T1 construct: PDZK1, full length, with PDZ1-PDZ4; source: recombinant, purified
T1 sequence (looked up): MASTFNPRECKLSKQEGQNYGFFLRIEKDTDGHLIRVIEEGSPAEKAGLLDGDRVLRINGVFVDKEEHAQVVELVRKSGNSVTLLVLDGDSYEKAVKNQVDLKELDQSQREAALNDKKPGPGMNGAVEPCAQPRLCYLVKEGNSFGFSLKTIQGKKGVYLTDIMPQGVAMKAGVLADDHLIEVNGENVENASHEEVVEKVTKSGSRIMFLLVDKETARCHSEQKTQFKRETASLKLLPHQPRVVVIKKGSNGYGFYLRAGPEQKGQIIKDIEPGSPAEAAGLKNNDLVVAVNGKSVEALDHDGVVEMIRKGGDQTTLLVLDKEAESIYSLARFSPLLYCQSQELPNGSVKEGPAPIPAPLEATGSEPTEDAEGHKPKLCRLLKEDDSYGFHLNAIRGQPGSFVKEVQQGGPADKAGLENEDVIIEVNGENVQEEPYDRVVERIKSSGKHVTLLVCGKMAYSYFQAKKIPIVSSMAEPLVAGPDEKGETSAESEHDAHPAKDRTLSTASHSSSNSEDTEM
Experiment: condition: 1.0 mM peptide titrated against 0.03 mM protein; ITC; 1.0 mM peptide injected in 10 µl aliquots into 0.03 mM PDZ1 or full length PDZK1 in the cell; 150 mM NaCl, 25 mM Tris pH 8.0, 0.5 mM TCEP, 20°C; VP-ITC; both purified

B1: Peptide 2 (K407SEAIAAC414), carboxy-terminus of IP devoid of the three terminal amino acids SLC (peptide)
peptide: KSEAIAAC
In the case of B1, the binding is reported as “no binding”.
